Article PMC9940370
Results are given in words; binding and its absence hold for the method and conditions named. Binding seen in cells or lysates may run through a third protein. Some results given as binding are weak or reduced against the parent protein; the word gives no strength. Sequences can lack the tags named with a protein.

Sequences of proteins named here, by UniProt entry; tags and fusion partners are left off.
UniProt P07355: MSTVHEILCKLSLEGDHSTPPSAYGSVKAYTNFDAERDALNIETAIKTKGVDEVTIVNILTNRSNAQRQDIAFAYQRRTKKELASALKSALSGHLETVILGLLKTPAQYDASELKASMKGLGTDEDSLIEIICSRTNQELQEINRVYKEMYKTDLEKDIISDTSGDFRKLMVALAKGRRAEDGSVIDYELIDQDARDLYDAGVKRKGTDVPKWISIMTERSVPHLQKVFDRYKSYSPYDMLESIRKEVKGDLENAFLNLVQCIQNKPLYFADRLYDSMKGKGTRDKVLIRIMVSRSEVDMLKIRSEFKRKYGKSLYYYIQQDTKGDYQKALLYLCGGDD

Biological target: Flag-tagged ANXA2 (Flag-ANXA2) (UniProt P07355)
Assay: co-IP; Flag immunoprecipitation: cell lysate (IP lysis buffer, protease inhibitors) incubated with anti-flag M2 affinity gel at 4 °C overnight, eluted with 3 × flag peptides, western blot

binding: binds
B1: GFP-tagged AQP1 (GFP-AQP1) (protein, UniProt P29972-1 1-269)
chain: MASEFKKKLFWRAVVAEFLATTLFVFISIGSALGFKYPVGNNQTAVQDNVKVSLAFGLSIATLAQSVGHISGAHLNPAVTLGLLLSCQISIFRALMYIIAQCVGAIVATAILSGITSSLTGNSLGRNDLADGVNSGQGLGIEIIGTLQLVLCVLATTDRRRRDLGGSAPLAIGLSVALGHLLAIDYTGCGINPARSFGSAVITHNFSNHWIFWVGPFIGGALAVLIYDFILAPRSSDLTDRVKVWTSGQVEEYDLDADDINSRVEMKPK
